PubChem BioAssay AID504764, Drosophila RNAi Screening Center | 2011
Aim: 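Knock-downs that raise or lower a Notch target reporter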 (primary screen). System: Drosophila Kc167 cells. Knock-down reagent: long dsRNA against Drosophila genes. Duration: about 5 days (4 days dsRNA, then 24 h after transfection). Challenge: transfection of constitutively active membrane-tethered Notch lacking the extracellular domain, read 24 h later. Measured: 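Light from a Notch-responsive E(spl)m3 luciferase reporter under active Notch, with control-promoter and no-Notch reporter wells to normalise; raw counts from paired wells a and b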. Reading the numbers: induced reporter light, run 1, well a and induced reporter light, run 1, well b: higher = more light from the Notch target reporter with active Notch; control promoter light, run 1, well a and control promoter light, run 1, well b: higher = more light from the viral control promoter (cell number, transfection, viability); uninduced reporter light, run 1, well a: higher = more light from the Notch target reporter without active Notch. Active means: 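Wells with low control signal or poorly matching duplicates excluded; duplicates averaged; per source plate, z beyond ±2 for induced/control log2 ratio or beyond ±1.8 for induced/uninduced marks a hit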. Meaning of the calls: active = modifier hit (raised or lowered Notch signal); inactive = not a hit.
The deposit covers about 22,000 reagents; below is an unselected part of those with a known target gene and a result. Of all reagents, 403 (1.9%) got an active call. 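Unnormalised raw counts per well; ratio z-scores behind the hit calls and whether each hit raises or lowers signal are not deposited.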 The numbers tell different reagents against one gene apart. Not stated in the record: the amount of reagent.

Shaw (Shaker cognate w) #1 → induced reporter light, run 1, well a: 2.25e5; induced reporter light, run 1, well b: 2.00e5; control promoter light, run 1, well a: 2.28e5; control promoter light, run 1, well b: 2.16e5; uninduced reporter light, run 1, well a: 12900; activity call: inactive
Shaw (Shaker cognate w) #2 → induced reporter light, run 1, well a: 2.05e5; induced reporter light, run 1, well b: 1.73e5; control promoter light, run 1, well a: 1.70e5; control promoter light, run 1, well b: 1.57e5; uninduced reporter light, run 1, well a: 11628; activity call: inactive
CG15547 → induced reporter light, run 1, well a: 1.40e5; induced reporter light, run 1, well b: 1.12e5; control promoter light, run 1, well a: 1.64e5; control promoter light, run 1, well b: 1.49e5; uninduced reporter light, run 1, well a: 10632; activity call: inactive
scf (supercoiling factor) → induced reporter light, run 1, well a: 1.25e5; induced reporter light, run 1, well b: 1.10e5; control promoter light, run 1, well a: 1.74e5; control promoter light, run 1, well b: 1.74e5; uninduced reporter light, run 1, well a: 7285; activity call: inactive
CG12818 → induced reporter light, run 1, well a: 79905; induced reporter light, run 1, well b: 80050; control promoter light, run 1, well a: 1.23e5; control promoter light, run 1, well b: 75930; uninduced reporter light, run 1, well a: 47355; activity call: inactive
Anp (Andropin) → induced reporter light, run 1, well a: 1.25e5; induced reporter light, run 1, well b: 1.31e5; control promoter light, run 1, well a: 1.61e5; control promoter light, run 1, well b: 1.42e5; uninduced reporter light, run 1, well a: 12000; activity call: inactive
Pgm1 (Phosphoglucose mutase 1) → induced reporter light, run 1, well a: 1.25e5; induced reporter light, run 1, well b: 98400; control promoter light, run 1, well a: 75475; control promoter light, run 1, well b: 91250; uninduced reporter light, run 1, well a: 9680; activity call: inactive
CG13671 → induced reporter light, run 1, well a: 68550; induced reporter light, run 1, well b: 1.05e5; control promoter light, run 1, well a: 78910; control promoter light, run 1, well b: 22330; uninduced reporter light, run 1, well a: 9050; activity call: inactive
CG1075 (retired record) → induced reporter light, run 1, well a: 53325; induced reporter light, run 1, well b: 61515; control promoter light, run 1, well a: 75180; control promoter light, run 1, well b: 52705; uninduced reporter light, run 1, well a: 4180; activity call: inactive
Ptr (Patched-related) → induced reporter light, run 1, well a: 1.88e5; induced reporter light, run 1, well b: 1.91e5; control promoter light, run 1, well a: 2.18e5; control promoter light, run 1, well b: 1.86e5; uninduced reporter light, run 1, well a: 14500; activity call: inactive
bai (baiser) → induced reporter light, run 1, well a: 1.76e5; induced reporter light, run 1, well b: 1.59e5; control promoter light, run 1, well a: 2.17e5; control promoter light, run 1, well b: 2.29e5; uninduced reporter light, run 1, well a: 16540; activity call: inactive
CG31206 → induced reporter light, run 1, well a: 92600; induced reporter light, run 1, well b: 84670; control promoter light, run 1, well a: 1.02e5; control promoter light, run 1, well b: 1.08e5; uninduced reporter light, run 1, well a: 11478; activity call: inactive

Laid out differently: results already given
Target gene | reagent no. | induced reporter light, run 1, well a | induced reporter light, run 1, well b | control promoter light, run 1, well a | control promoter light, run 1, well b | uninduced reporter light, run 1, well a | activity call
Shaw (Shaker cognate w) | 1 | 2.25e5 | 2.00e5 | 2.28e5 | 2.16e5 | 12900 | inactive
Shaw (Shaker cognate w) | 2 | 2.05e5 | 1.73e5 | 1.70e5 | 1.57e5 | 11628 | inactive
